Test results: PubChem BioAssay AID434947 (Broad Institute, 2010)
The whole screen tested about 2,200 compounds, of which about 15 (0.7%) were called active.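 How the source made its calls: active means fitted half-maximal concentration for loss of luminescence signal no more than a set limit of log units above the top tested concentration; inconclusive means flat fit with 30 to 70% signal loss, or invalid fit; inactive means half-maximal concentration above that set limit.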 This is one part of the list.

assay: inhibitors of ADP-Glo detection reagents, dose response, artefact control for GSK3beta inhibitor project, biochemical, luminescence, cell-free, homogeneous (AID 434947); conditions: 5 uM ADP;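 further: kinase-free counter screen of ADP-Glo detection reagents for GSK3beta hits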

EC50, inactive:
Cn1c(SCC(=O)NC2CCCCC2)nnc1-c1ccccn1 > 30 µM, c1ccc2c(CSc3nnc(-c4ccncc4)o3)cccc2c1 > 30 µM, COc1cccc2cc(CC(=O)c3cc(C)ccc3C)c(=O)oc12 > 30 µM, COc1cc2c(cc1OC)C(C)N(C(=O)c1ccc(Br)o1)CC2 (stereo not given) > 30 µM, CCC(=O)Nc1sc2c(c1C(N)=O)CCN(C(C)=O)C2 > 30 µM, O=C(Nc1ccncc1)c1ccccc1-c1ccccc1 > 30 µM, Cc1ccc(/C=N\NC(=O)c2cncc(Br)c2)o1 > 30 µM, COc1cccc(/C=C2\Sc3ccc(C(=O)NCC4CCCO4)cc3N(C)C2=O)c1 (stereo not given) > 30 µM, O=C(CCc1ccccc1)Nc1cccc([N+](=O)[O-])c1 > 30 µM, O=C(Nc1ccc2c(c1)OCO2)Nc1ccc(F)cc1F > 30 µM, CCOC(=O)c1nnn(-c2nonc2N)c1CN(CC)CC > 30 µM, N#Cc1cccc(-c2nnc(SCc3ccccc3C#N)o2)c1 > 30 µM, COc1ccc(-c2nn(-c3ccccc3)cc2/C=N/NC(N)=S)cc1OC > 30 µM, O=[N+]([O-])c1ccccc1S(=O)(=O)Nc1ccc(S(=O)(=O)Nc2nccs2)cc1 > 30 µM, COc1ccc(-c2csc(N3CCOCC3)n2)cc1OC > 30 µM, CCOC(=O)CSc1ccc2nnc(-c3cccnc3)n2n1 > 30 µM, COc1ccc(/C=C2\Sc3ccc(C(=O)NCCN4CCCCCC4)cc3N(C)C2=O)cc1 > 30 µM, COc1ccc(C(=O)c2sc(Nc3ccc(NC(C)=O)cc3)nc2C)cc1 > 30 µM, COC(=O)C1=CN(Cc2ccc(OC)c(OC)c2)C=C(C(=O)OC)C1c1ccccc1F > 30 µM, CC1=C(C(=O)OCC2CCCO2)C(c2ccsc2)C2=C(CC(C)(C)CC2=O)N1 (stereo not given) > 30 µM, O=C(CN1C(=O)CCC1=O)Nc1ccc(Cc2ccc(NC(=O)CN3C(=O)CCC3=O)cc2)cc1 > 30 µM, COc1ccc(-c2nc(-c3ccccc3)nc(Cl)c2C#N)cc1 > 30 µM, O=C1NCCCc2c1oc1ccc(O)cc21 > 30 µM, CCc1nc(SCC(=O)Nc2ccc(Br)cn2)n[nH]1 > 30 µM, O=C(Nc1ccc(Cl)cc1)Nc1ccccn1 > 30 µM, Nc1nonc1-n1nnc(C(=O)N/N=C/c2ccc(O)cc2)c1CN1CCCCCC1 > 30 µM, O=C(COc1ccc2ccccc2c1)Nc1cccc2c1C(=O)NC2=O > 30 µM, COCCNc1nc(N)c([N+](=O)[O-])c(NCCO)n1 > 30 µM, Cc1ccccc1CSc1nc2n(n1)C(c1cccs1)C1=C(CCCC1=O)N2 (stereo not given) > 30 µM, CSc1nc(SCC(N)=O)c2c3c(sc2n1)CN(C)CC3 > 30 µM, O=C(CN(Cc1ccccc1)C(=O)CCC(=O)Nc1ccccn1)NCc1ccc(F)cc1 > 30 µM, CCCN(CCC)Cc1c(C(=O)N/N=C/c2ccco2)nnn1-c1nonc1N > 30 µM, CCOC(=O)c1nnn(-c2nonc2N)c1CSc1nnc(N)s1 > 30 µM, CC1(C)CC(CC(=O)NC(=S)Nc2ccc([N+](=O)[O-])cc2)C(=O)O1 (stereo not given) > 30 µM, CN(C)Cc1c(O)ccc2c(-c3ccccc3)cc(=O)oc12 > 30 µM, Cc1ccc2nc3c(cc2c1)c(NC(=O)C1CCCO1)nn3CC(C)C (stereo not given) > 30 µM, Cc1ccc(S(=O)(=O)CC(=O)c2cc3cccc(C)c3oc2=O)cc1 > 30 µM, COc1cccc2cc(C(=O)OCc3ccccc3)c(=O)oc12 > 30 µM, O=C(CN1C(=O)c2ccccc2C1=O)Nc1ccccc1F > 30 µM, CC1(C)CC(=O)C=C(Nc2ccc(Br)cn2)C1 > 30 µM, COc1cc(/C=C(\C#N)C(=O)c2c[nH]c3ccccc23)cc(OC)c1O > 30 µM, Cc1ccc(-n2c(C)nc3c(cnn3-c3ccc(F)cc3)c2=O)cc1C > 30 µM, CCN(CC)CCNC(=O)C(=O)Nc1ccc2c(c1)N(S(=O)(=O)c1cccs1)CCC2 > 30 µM, CCCCc1cc(=O)oc2cc(C)cc(OCC(=O)O)c12 > 30 µM, Nc1ccc(O)c2c(=O)cc(-c3ccccc3Cl)oc12 > 30 µM, CCCOc1cc(C)nc(-c2ccccc2O)n1 > 30 µM, CCc1cc(=O)oc2cc(OC(C)=O)cc(OC(C)=O)c12 > 30 µM, Cc1ccc(-c2cc(C(=O)NCCc3ccccn3)c3ccccc3n2)c(C)c1 > 30 µM, CCOC(=O)c1cnc2ccc(C(=O)OC)cc2c1Nc1ccc2c(c1)OCCO2 > 30 µM, O=C(c1ccc(Cl)cc1)c1coc2ccc(O)cc12 > 30 µM, CCOC(=O)C1=C(C)Nc2ncnn2C1c1cccnc1 (stereo not given) > 30 µM, COc1ccc(Nc2nc(-c3ccncc3)nc3ccccc23)cc1 > 30 µM, O/N=C/c1cn(-c2ccccc2)nc1-c1ccccc1 > 30 µM, CCOC(=O)C1=C(C(F)(F)F)Nc2ncnn2C1c1cc(OC)ccc1OC (stereo not given) > 30 µM, CNC(=O)NC(=O)CSc1nc2ccccc2n1CCOC > 30 µM, COc1ccc2oc3cc(C)[n+]([O-])c(-c4ccc(Cl)cc4)c3c2c1 > 30 µM, Cc1ccc(-c2nn(-c3ccccc3)cc2CNCc2ccccc2)cc1 > 30 µM, CN(C)CCc1cc2c(c3c1ccc1ccccc13)OCO2 > 30 µM, Cc1ccc(/C=N\NC(=O)COc2ccc(C)cc2[N+](=O)[O-])cc1 > 30 µM, CCC1(C)NC(=O)N(CC(=O)Nc2sc3c(c2C(N)=O)CCC3)C1=O (stereo not given) > 30 µM, Cc1csc2c(=O)n(CCO)c(=O)[nH]c12 > 30 µM, C=CCNC(=S)N/N=C/c1cn(-c2ccccc2)nc1-c1ccc(OC)cc1 > 30 µM, C=CCNc1nc(N)c([N+](=O)[O-])c(NC2CCCCC2)n1 > 35 µM, Nn1c(SCc2cccc(Br)c2)nnc1-c1ccncc1 > 30 µM, CCCNC(=O)c1ccc(Cl)cc1Cl > 30 µM, COc1ccc(CN(CC(=O)NCc2ccco2)C(=O)CCC(=O)Nc2ccccn2)cc1 > 30 µM, Cn1nc(-c2ccccn2)nc2c(=O)n(C)c(=O)nc1-2 > 30 µM, COc1ccc(C(=O)c2sc(Nc3ccccc3)nc2C)cc1 > 30 µM, O=C(Nc1ccnn1C1CCN(Cc2cccc(OCCO)c2)CC1)C1CCCC1 > 30 µM, N#Cc1c(-c2cccs2)cc(-c2cccnc2)nc1N > 30 µM, Fc1ccc(CSc2nnc(-c3ccco3)o2)cc1 > 30 µM, COc1ccc(NC(=O)c2ccc(-c3ccc(OC)cc3)s2)cc1 > 30 µM, Cc1ccc(C)c(S(=O)(=O)NCc2ccc(C(=O)N3CC(C)OC(C)C3)cc2)c1 (stereo not given) > 30 µM, c1ccc(Nc2ncnc3[nH]ncc23)cc1 > 30 µM, CCN1CCN(CCNC(=O)c2ccc3c(c2)NC(=O)/C(=C\c2ccc(OC)c(OC)c2)S3)CC1 > 30 µM, COc1ccc(CNC(=O)CN(Cc2ccc(OC)cc2)C(=O)CCC(=O)Nc2ccccn2)cc1 > 30 µM, O=C(Nc1ccccn1)Nc1cccs1 > 30 µM, CCN(CC)Cc1c(O)ccc2c(=O)c(-c3ccc4c(c3)OCCO4)coc12 > 10 µM, O=S(=O)(NCCC1CC1(Cl)Cl)c1ccc(Cl)cc1 (stereo not given) > 30 µM, CC1(C)CC(=O)C=C(Nc2ccc3c(c2)OCCO3)C1 > 30 µM, O=C(NC(=S)Nc1cccc2c(O)cccc12)c1ccco1 > 30 µM, c1cncc(-c2nc(NCc3ccc4c(c3)OCO4)c3ccccc3n2)c1 > 30 µM, CCSc1ccc2nnc(-c3cccs3)n2n1 > 30 µM, COc1ccc2occ(C(=O)c3ccc(N)cc3)c2c1 > 30 µM, NS(=O)(=O)c1ccc(CCNC(=O)C(=O)c2cn(CC(=O)N3CCCC3)c3ccccc23)cc1 > 30 µM, COc1cc2[nH]c(=O)n3nc(-c4ccccc4)nc3c2cc1OC > 30 µM, Brc1ccc(CSc2nnc(-c3cccnc3)o2)cc1 > 30 µM, CCn1c(SCC(=O)Nc2nccs2)nnc1C1CC1 > 30 µM, COC(=O)c1nnn(-c2nonc2N)c1-c1cccs1 > 30 µM, NS(=O)(=O)c1ccc(N=Nc2c(O)[nH]c3ccc(Br)cc23)cc1 > 30 µM, C/C(=N\O)c1ncc(C(F)(F)F)cc1Cl > 30 µM, CCCCC(CC)C(=O)Nc1ncc([N+](=O)[O-])s1 (stereo not given) > 30 µM, CC(C)CCn1c(CN2CCN(c3cccc(Cl)c3)CC2)nc2c1c(=O)n(C)c(=O)n2C > 30 µM, CCN(CC)CCOC(=O)c1ccc(NC(=S)NC(=O)/C=C/c2ccco2)cc1 > 30 µM

EC50, active:
Cc1ccc(C(=O)O/N=C(\N)c2ccccn2)c(Cl)c1 26.6 µM
